Laboratory results published in the supplement of paper PMC4604168 (melanoma cell lines).
The other results are listed elsewhere or left out. Many values rest on one well or one pass, so single values are uncertain.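 Cells were imaged in 1,536-well plates, and nuclei stained with an antibody against cleaved PARP were counted against all DNA-stained nuclei to give the apoptosis fraction. Screening doses were chosen to leave most cells alive, and resting and induced cleaved-PARP levels differ strongly between cell lines.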

Legend:
Assay in all cases: cleaved PARP positive nuclei fraction relative to DMSO control; melanoma cells; higher = more apoptosis
Settings in all cases: library dose: low library concentration; 72 h
501Mel = system: 501Mel
A101D = system: A101D
A2058 = system: A2058
A375 = system: A375
C32 = system: C32
CBRC008 = system: CBRC008 (line from a melanoma biopsy)
CBRC014 = system: CBRC014 (line from a melanoma biopsy)
CBRC016 = system: CBRC016 (line from a melanoma biopsy)
CBRC017 = system: CBRC017 (line from a melanoma biopsy)
CBRC034 = system: CBRC034 (line from a melanoma biopsy)
COLO792 = system: COLO792
COLO800 = system: COLO800
COLO829 = system: COLO829
G361 = system: G361
IPC-298 = system: IPC-298
IST-MEL1 = system: IST-MEL1
LB2518-MEL = system: LB2518-MEL
LOXIMVI = system: LOXIMVI
MEL-HO = system: MEL-HO

SMILES	cleaved PARP positive nuclei fraction (501Mel) [%]	cleaved PARP positive nuclei fraction (A101D) [%]	cleaved PARP positive nuclei fraction (A2058) [%]	cleaved PARP positive nuclei fraction (A375) [%]	cleaved PARP positive nuclei fraction (C32) [%]	cleaved PARP positive nuclei fraction (CBRC008) [%]	cleaved PARP positive nuclei fraction (CBRC014) [%]	cleaved PARP positive nuclei fraction (CBRC016) [%]	cleaved PARP positive nuclei fraction (CBRC017) [%]	cleaved PARP positive nuclei fraction (CBRC034) [%]	cleaved PARP positive nuclei fraction (COLO792) [%]	cleaved PARP positive nuclei fraction (COLO800) [%]	cleaved PARP positive nuclei fraction (COLO829) [%]	cleaved PARP positive nuclei fraction (G361) [%]	cleaved PARP positive nuclei fraction (IPC-298) [%]	cleaved PARP positive nuclei fraction (IST-MEL1) [%]	cleaved PARP positive nuclei fraction (LB2518-MEL) [%]	cleaved PARP positive nuclei fraction (LOXIMVI) [%]	cleaved PARP positive nuclei fraction (MEL-HO) [%]
Cc1ccc(Nc2nccc(N(C)c3ccc4c(C)n(C)nc4c3)n2)cc1S(N)(=O)=O [Pazopanib] + Cc1cc(Nc2cc(N3CCN(C)CC3)nc(/C=C/c3ccccc3)n2)n[nH]1 [ENMD2076] (first compound 0.4 µM, partner dose 0.04 µM)	77.8	64	185	125	84.4	70.3	106	158	179	43.8	165	103	96.9	168	273	126	95.7	28.7	61
CCCCCCCCCCCCCCCCCCOP(=O)([O-])OC1CC[N+](C)(C)CC1 [Perifosine] + CCCS(=O)(=O)Nc1ccc(F)c(C(=O)c2c[nH]c3ncc(Cl)cc23)c1F [PLX4720] (first compound 0.4 µM, partner dose 0.08 µM)	78.2	84	72.2	95.3	81.8	22.1	95	111	90.4	114	119	62.2	71.2	60.5	198	191	87.3	37.5	153
Cc1ccc(Nc2nccc(N(C)c3ccc4c(C)n(C)nc4c3)n2)cc1S(N)(=O)=O [Pazopanib] + CC(=O)O[C@@]12CO[C@@H]1C[C@H](O)[C@@]1(C)C(=O)[C@H](O)C3=C(C)[C@@H](OC(=O)[C@H](O)[C@@H](NC(=O)OC(C)(C)C)c4ccccc4)C[C@@](O)([C@@H](OC(=O)c4ccccc4)[C@H]21)C3(C)C [Docetaxel] (first compound 0.4 µM, partner dose 0.0001 µM)	91.9	66.5	2550	2320	77.3	292	139	211	167	63	472	172	171	362	214	95.7	243	173	96.4
CCCCCCCCCCCCCCCCCCOP(=O)([O-])OC1CC[N+](C)(C)CC1 [Perifosine] + CNC(=O)c1cc(Oc2ccc(NC(=O)Nc3ccc(Cl)c(C(F)(F)F)c3)cc2)ccn1 [sorafenib] (first compound 0.4 µM, partner dose 0.4 µM)	79.9	84.3	104	73.6	83.5	28.6	113	100	106	118	131	200	73.2	157	63.8	122	136	119	59
O=c1[nH]nc(Sc2ncc([N+](=O)[O-])s2)n1-c1ccc2c(c1)OCCO2 + COc1ccc(C2=N[C@@H](c3ccc(Cl)cc3)[C@@H](c3ccc(Cl)cc3)N2C(=O)N2CCNC(=O)C2)c(OC(C)C)c1 [Nutlin-3] (first compound 0.2 µM, partner dose 0.1 µM)	103	201	136	135	79.3	48.7	109	129	135	31.9	152	64.4	74.7	62.5	84.4	61	25.3	42.6	75.3
O=C(/C=C/c1cccnc1)NCCCCC1CCN(C(=O)c2ccccc2)CC1 + C[C@]1(c2nc3c(C(N)=O)cccc3[nH]2)CCCN1 [Veliparib] (first compound 0.01 µM, partner dose 1.4 µM)	84.9	87.4	162	130	85.5	2070	103	150	923	725	287	52.5	173	4280	173	176	125	87	156
Cc1cn(-c2cc(NC(=O)c3ccc(C)c(Nc4nccc(-c5cccnc5)n4)c3)cc(C(F)(F)F)c2)cn1 [nilotinib] + CN1CCN(c2ccc3nc(-c4c(N)c5c(F)cccc5[nH]c4=O)[nH]c3c2)CC1 [Dovitinib] (first compound 0.2 µM, partner dose 0.1 µM)	202	82	156	110	65.7	23.8	87.2	51.6	80.1	71	55.1	124	107	74.3	81.2	130	47.9	153	75.3
N#CC[C@H](C1CCCC1)n1cc(-c2ncnc3[nH]ccc23)cn1 [ruxolitinib] + O=C(O)c1ccc2c(c1)nc(Nc1cccc(Cl)c1)c1ccncc12 [CX4945] (first compound 1 µM, partner dose 0.4 µM)	66.2	104	106	81.6	151	250	120	391	244	194	103	51.2	101	169	181	62.6	157	57.2	75.1
Cc1cc(Nc2cc(N3CCN(C)CC3)nc(Sc3ccc(NC(=O)C4CC4)cc3)n2)n[nH]1 [Tozasertib] + CCCS(=O)(=O)Nc1ccc(F)c(C(=O)c2c[nH]c3ncc(Cl)cc23)c1F [PLX4720] (first compound 0.006 µM, partner dose 0.08 µM)	95.9	40.1	72.2	153	106	104	123	43.4	116	32.5	162	147	94.7	95.1	131	77.2	115	236	136
Cc1ccc(Nc2nccc(N(C)c3ccc4c(C)n(C)nc4c3)n2)cc1S(N)(=O)=O [Pazopanib] + C=C(c1ccc(C(=O)O)cc1)c1cc2c(cc1C)C(C)(C)CCC2(C)C [Bexarotene] (first compound 0.4 µM, partner dose 2 µM)	88	215	59.9	123	99.9	39.8	107	157	113	62.6	146	130	81.9	223	105	73.7	98.3	78	153
O=C(/C=C/c1cccnc1)NCCCCC1CCN(C(=O)c2ccccc2)CC1 + CC1(C)CCC(c2ccc(Cl)cc2)=C(CN2CCN(c3ccc(C(=O)NS(=O)(=O)c4ccc(N[C@H](CCN5CCOCC5)CSc5ccccc5)c(S(=O)(=O)C(F)(F)F)c4)cc3)CC2)C1 [ABT263] (first compound 0.01 µM, partner dose 0.4 µM)	62.5	171	127	1120	303	2110	6530	1570	1950	1690	2140	161	405	8210	11400	3040	668	864	1430
O=C(Nc1cc(C(F)(F)F)cc(C(F)(F)F)c1)c1cc(Cl)ccc1O + CS(=O)(=O)c1ccc(C(=O)Nc2ccc(Cl)c(-c3ccccn3)c2)c(Cl)c1 [vismodegib] (first compound 0.016 µM, partner dose 1 µM)	57.7	58.3	292	30.9	85.9	203	108	162	171	63	123	127	19.9	82.1	42.7	93.6	107	118	92.4
Cc1cn(-c2cc(NC(=O)c3ccc(C)c(Nc4nccc(-c5cccnc5)n4)c3)cc(C(F)(F)F)c2)cn1 [nilotinib] + C=CCNC1=C2C[C@@H](C)C[C@H](OC)[C@H](O)[C@@H](C)/C=C(\C)[C@H](OC(N)=O)[C@@H](OC)/C=C\C=C(/C)C(=O)NC(=CC1=O)C2=O [Tanespimycin] (first compound 0.2 µM, partner dose 0.002 µM)	136	189	138	106	93.5	186	97.9	162	103	70.2	132	50.9	67.7	135	135	70.1	123	31.8	129
Cc1cc(Nc2cc(N3CCN(C)CC3)nc(Sc3ccc(NC(=O)C4CC4)cc3)n2)n[nH]1 [Tozasertib] + C[C@]1(c2nc3c(C(N)=O)cccc3[nH]2)CCCN1 [Veliparib] (first compound 0.006 µM, partner dose 1.4 µM)	68	224	183	170	87	41.3	112	154	134	139	137	152	147	185	172	33.4	210	109	90
Cc1ccc(Nc2nccc(N(C)c3ccc4c(C)n(C)nc4c3)n2)cc1S(N)(=O)=O [Pazopanib] + O=C(O)[C@@H]1[O][Sb](=[O])([O][Sb]2(=[O])[O][C@H]([C@H](O)CO)[C@H](O)[C@H](C(=O)O)[O]2)[O][C@H]([C@H](O)CO)[C@@H]1O [stibogluconate] (first compound 0.4 µM, partner dose 2 µM)	91.3	120	91.7	56.3	91.2	37.6	124	108	145	62.6	87.2	89.6	83.1	89.7	113	129	122	41.9	33.1
CC[C@]1(O)C[C@H]2CN(CCc3c([nH]c4ccccc34)[C@@](C(=O)OC)(c3cc4c(cc3OC)N(C=O)[C@H]3[C@@](O)(C(=O)OC)[C@H](OC(C)=O)[C@]5(CC)C=CCN6CC[C@]43[C@@H]65)C2)C1 [vincristine] + COc1ccc(Cl)c(Nc2nc3ccccc3nc2NS(=O)(=O)c2cccc(NC(=O)C(C)(C)N)c2)c1 [XL147] (first compound 0.0001 µM, partner dose 0.8 µM)	102	149	156	104	157	388	88.3	333	128	171	51.5	155	103	89.9	29.1	145	103	116	119

Some of the entries so far, in markdown.

| SMILES | cleaved PARP positive nuclei fraction (501Mel) [%] | cleaved PARP positive nuclei fraction (A101D) [%] | cleaved PARP positive nuclei fraction (A2058) [%] | cleaved PARP positive nuclei fraction (A375) [%] | cleaved PARP positive nuclei fraction (C32) [%] | cleaved PARP positive nuclei fraction (CBRC008) [%] | cleaved PARP positive nuclei fraction (CBRC014) [%] | cleaved PARP positive nuclei fraction (CBRC016) [%] | cleaved PARP positive nuclei fraction (CBRC017) [%] | cleaved PARP positive nuclei fraction (CBRC034) [%] | cleaved PARP positive nuclei fraction (COLO792) [%] | cleaved PARP positive nuclei fraction (COLO800) [%] | cleaved PARP positive nuclei fraction (COLO829) [%] | cleaved PARP positive nuclei fraction (G361) [%] | cleaved PARP positive nuclei fraction (IPC-298) [%] | cleaved PARP positive nuclei fraction (IST-MEL1) [%] | cleaved PARP positive nuclei fraction (LB2518-MEL) [%] | cleaved PARP positive nuclei fraction (LOXIMVI) [%] | cleaved PARP positive nuclei fraction (MEL-HO) [%] |
| --- | --- | --- | --- | --- | --- | --- | --- | --- | --- | --- | --- | --- | --- | --- | --- | --- | --- | --- | --- |
| Cc1cc(Nc2cc(N3CCN(C)CC3)nc(Sc3ccc(NC(=O)C4CC4)cc3)n2)n[nH]1 [Tozasertib] + CCCS(=O)(=O)Nc1ccc(F)c(C(=O)c2c[nH]c3ncc(Cl)cc23)c1F [PLX4720] (first compound 0.006 µM, partner dose 0.08 µM) | 95.9 | 40.1 | 72.2 | 153 | 106 | 104 | 123 | 43.4 | 116 | 32.5 | 162 | 147 | 94.7 | 95.1 | 131 | 77.2 | 115 | 236 | 136 |
| Cc1ccc(Nc2nccc(N(C)c3ccc4c(C)n(C)nc4c3)n2)cc1S(N)(=O)=O [Pazopanib] + C=C(c1ccc(C(=O)O)cc1)c1cc2c(cc1C)C(C)(C)CCC2(C)C [Bexarotene] (first compound 0.4 µM, partner dose 2 µM) | 88 | 215 | 59.9 | 123 | 99.9 | 39.8 | 107 | 157 | 113 | 62.6 | 146 | 130 | 81.9 | 223 | 105 | 73.7 | 98.3 | 78 | 153 |
